Measured values reported in PMC13558869.
These are yes or no findings as the source states them, for the method shown. Binding seen in cells or lysates may run through a third protein. A yes stands for co-enrichment or nearness to the bait. Other partners may have been found. For some of these results: Where a sequence is shown, tags or fusion partners need not be part of it.

T1: ZFP36L1 (human (endogenous in primary T cells)) (UniProt Q07352)
T1 sequence: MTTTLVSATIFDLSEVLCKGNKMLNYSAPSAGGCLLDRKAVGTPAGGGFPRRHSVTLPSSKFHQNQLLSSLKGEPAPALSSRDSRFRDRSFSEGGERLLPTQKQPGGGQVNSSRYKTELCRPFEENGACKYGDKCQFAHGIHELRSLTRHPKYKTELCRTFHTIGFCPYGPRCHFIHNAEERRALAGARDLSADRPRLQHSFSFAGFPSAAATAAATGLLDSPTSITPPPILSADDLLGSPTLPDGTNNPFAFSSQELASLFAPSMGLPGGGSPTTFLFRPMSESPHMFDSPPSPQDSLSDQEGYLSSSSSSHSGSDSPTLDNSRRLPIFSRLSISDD

T2: UltraID_ZFP36L1 (UltraID fused to the N-terminus of ZFP36L1, co-expressed with GFP through P2A) (UniProt Q07352)
T2 sequence: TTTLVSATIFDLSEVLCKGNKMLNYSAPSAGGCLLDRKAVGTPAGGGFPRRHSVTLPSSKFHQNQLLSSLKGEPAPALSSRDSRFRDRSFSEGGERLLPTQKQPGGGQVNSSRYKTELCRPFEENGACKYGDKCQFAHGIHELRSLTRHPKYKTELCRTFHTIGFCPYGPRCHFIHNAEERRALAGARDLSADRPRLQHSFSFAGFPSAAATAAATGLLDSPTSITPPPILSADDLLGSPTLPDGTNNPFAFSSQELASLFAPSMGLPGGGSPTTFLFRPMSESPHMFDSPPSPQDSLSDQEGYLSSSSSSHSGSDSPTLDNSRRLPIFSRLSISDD


Columns and labels:
[1] = biological target: T1, ZFP36L1 (human (endogenous in primary T cells)); test: affinity purification with mass spectrometry; Co-IP of endogenous ZFP36L1 with 10 μg anti-ZFP36L1 (1A3) or IgG control on Protein A Dynabeads, 4 h at 4°C, from cytoplasmic (1% digitonin) lysates of αCD3/αCD28-activated human CD3+ T cells at 0, 2, 5, 16 h; lysates untreated or treated with 200 U/ml RNAse A throughout; MS
[2] = biological target: T2, UltraID_ZFP36L1 (UltraID fused to the N-terminus of ZFP36L1, co-expressed with GFP through P2A); test: proximity labelling; UltraID_L1 in retrovirally transduced primary human T cells, rested or re-activated 16 h with αCD3/αCD28, with or without 500 μM biotin; biotinylated proteins captured from lysate on streptavidin beads and identified by MS; controls UltraID_GFP and no biotin; T cell screens 1 and 2 (the network of Fig 3A also draws on the Jurkat screen)
[3] = biological target: T2, UltraID_ZFP36L1 (UltraID fused to the N-terminus of ZFP36L1, co-expressed with GFP through P2A); test: proximity labelling; time course: UltraID_L1 T cells re-activated with αCD3/αCD28 for 0, 2, 5, 16 h; biotin added for 2 h, for 3 h (2-5 h) or for 9 h (5-16 h); streptavidin capture, MS; supervised classification into shapes

binding [1]	binding [2]	binding [3]	Binder
binds	binds		FAM120A (protein, UniProt Q9NZB2 1-1118) MGVQGFQDYIEKHCPSAVVPVELQKLARGSLVGGGRQRPPQTPLRLLVDADNCLHRLYGGFYTDWVSGGQWNHMLGYLAALAKACFGGNIELFVFFNGALEKARLHEWVKRQGNERQTAQQIVSHVQNKGTPPPKVWFLPPVCMAHCIRLALIRFHVKVAQSIEDHHQEVIGFCRENGFHGLVAYDSDYALCNIPYYFSAHALKLSRNGKSLTTSQYLMHEVAKQLDLNPNRFPIFAALLGNHILPDEDLASFHWSLLGPEHPLASLKVRAHQLVLPPCDVVIKAVADYVRNIQDTSDLDAIAKDVFQHSQSRTDDKVIRFKRAIGYYSATSKPMSFHPPHYLAARPGPFGMPGMVPPHVPPQMLNIPQTSLQAKPVAPQVPSPGGAPGQGPYPYSLSEPAPLTLDTSGKNLTEQNSYSNIPHEGKHTPLYERSSPINPAQSGSPNHVDSAYFPGSSTSSSSDNDEGSGGATNHISGNKIGWEKTGSHSEPQARGDPGDQTKAEGSSTASSGSQLAEGKGSQMGTVQPIPCLLSMPTRNHMDITTPPLPPVAPEVLRVAEHRHKKGLMYPYIFHVLTKGEIKIAVSIEDEANKDLPPAALLYRPVRQYVYGVLFSLAESRKKTERLAFRKNRLPPEFSPVIIKEWAAYKGKSPQTPELVEALAFREWTCPNLKRLWLGKAVEDKNRRMRAFLACMRSDTPAMLNPANVPTHLMVLCCVLRYMVQWPGARILRRQELDAFLAQALSPKLYEPDQLQELKIENLDPRGIQLSALFMSGVDMALFANDACGQPIPWEHCCPWMYFDGKLFQSKLLKASREKTPLIDLCDGQADQAAKVEKMRQSVLEGLSFSRQSHTLPFPPPPALPFYPASAYPRHFGPVPPSQGRGRGFAGVCGFGGPYGETVATGPYRAFRVAAASGHCGAFSGSDSSRTSKSQGGVQPIPSQGGKLEIAGTVVGHWAGSRRGRGGRGPFPLQVVSVGGPARGRPRGVISTPVIRTFGRGGRYYGRGYKNQAAIQGRPPYAASAEEVAKELKSKSGESKSSAMSSDGSLAENGVMAEEKPAPQMNGSTGDARAPSHSESALNNDSKTCNTNPHLNALSTDSACRREAALEAAVLNKEE
	binds	binds	PATL1 (protein, UniProt Q86TB9 1-770) MFRYESLEDCPLDEDEDAFQGLGEEDEEIDQFNDDTFGSGAVDDDWQEAHERLAELEEKLPVAVNEQTGNGERDEMDLLGDHEENLAERLSKMVIENELEDPAIMRAVQTRPVLQPQPGSLNSSIWDGSEVLRRIRGPLLAQEMPTVSVLEYALPQRPPQGPEDDRDLSERALPRRSTSPIIGSPPVRAVPIGTPPKQMAVPSFTQQILCPKPVHVRPPMPPRYPAPYGERMSPNQLCSVPNSSLLGHPFPPSVPPVLSPLQRAQLLGGAQLQPGRMSPSQFARVPGFVGSPLAAMNPKLLQGRVGQMLPPAPGFRAFFSAPPSATPPPQQHPPGPGPHLQNLRSQAPMFRPDTTHLHPQHRRLLHQRQQQNRSQHRNLNGAGDRGSHRSSHQDHLRKDPYANLMLQREKDWVSKIQMMQLQSTDPYLDDFYYQNYFEKLEKLSAAEEIQGDGPKKERTKLITPQVAKLEHAYKPVQFEGSLGKLTVSSVNNPRKMIDAVVTSRSEDDETKEKQVRDKRRKTLVIIEKTYSLLLDVEDYERRYLLSLEEERPALMDDRKHKICSMYDNLRGKLPGQERPSDDHFVQIMCIRKGKRMVARILPFLSTEQAADILMTTARNLPFLIKKDAQDEVLPCLLSPFSLLLYHLPSVSITSLLRQLMNLPQSAATPALSNPHLTAVLQNKFGLSLLLILLSRGEDLQSSDPATESTQNNQWTEVMFMATRELLRIPQAALAKPISIPTNLVSLFSRYVDRQKLNLLETKLQLVQGIR
binds	binds		ZNF598 (protein, UniProt Q86UK7 1-904) MAAAGGAEGRRAALEAAAAAAPERGGGSCVLCCGDLEATALGRCDHPVCYRCSTKMRVLCEQRYCAVCREELRQVVFGKKLPAFATIPIHQLQHEKKYDIYFADGKVYALYRQLLQHECPRCPELPPFSLFGDLEQHMRRQHELFCCRLCLQHLQIFTYERKWYSRKDLARHRMQGDPDDTSHRGHPLCKFCDERYLDNDELLKHLRRDHYFCHFCDSDGAQDYYSDYAYLREHFREKHFLCEEGRCSTEQFTHAFRTEIDLKAHRTACHSRSRAEARQNRHIDLQFSYAPRHSRRNEGVVGGEDYEEVDRYSRQGRVARAGTRGAQQSRRGSWRYKREEEDREVAAAVRASVAAQQQEEARRSEDQEEGGRPKKEEAAARGPEDPRGPRRSPRTQGEGPGPKETSTNGPVSQEAFSVTGPAAPGCVGVPGALPPPSPKLKDEDFPSLSASTSSSCSTAATPGPVGLALPYAIPARGRSAFQEEDFPALVSSVPKPGTAPTSLVSAWNSSSSSKKVAQPPLSAQATGSGQPTRKAGKGSRGGRKGGPPFTQEEEEDGGPALQELLSTRPTGSVSSTLGLASIQPSKVGKKKKVGSEKPGTTLPQPPPATCPPGALQAPEAPASRAEGPVAVVVNGHTEGPAPARSAPKEPPGLPRPLGSFPCPTPQEDFPALGGPCPPRMPPPPGFSAVVLLKGTPPPPPPGLVPPISKPPPGFSGLLPSPHPACVPSPATTTTTKAPRLLPAPRAYLVPENFRERNLQLIQSIRDFLQSDEARFSEFKSHSGEFRQGLISAAQYYKSCRDLLGENFQKVFNELLVLLPDTAKQQELLSAHTDFCNREKPLSTKSKKNKKSAWQATTQQAGLDCRVCPTCQQVLAHGDASSHQALHAARDDDFPSLQAIARIIT
binds	binds		MOV10 (protein, UniProt Q9HCE1 1-1003) MPSKFSCRQLREAGQCFESFLVVRGLDMETDRERLRTIYNRDFKISFGTPAPGFSSMLYGMKIANLAYVTKTRVRFFRLDRWADVRFPEKRRMKLGSDISKHHKSLLAKIFYDRAEYLHGKHGVDVEVQGPHEARDGQLLIRLDLNRKEVLTLRLRNGGTQSVTLTHLFPLCRTPQFAFYNEDQELPCPLGPGECYELHVHCKTSFVGYFPATVLWELLGPGESGSEGAGTFYIARFLAAVAHSPLAAQLKPMTPFKRTRITGNPVVTNRIEEGERPDRAKGYDLELSMALGTYYPPPRLRQLLPMLLQGTSIFTAPKEIAEIKAQLETALKWRNYEVKLRLLLHLEELQMEHDIRHYDLESVPMTWDPVDQNPRLLTLEVPGVTESRPSVLRGDHLFALLSSETHQEDPITYKGFVHKVELDRVKLSFSMSLLSRFVDGLTFKVNFTFNRQPLRVQHRALELTGRWLLWPMLFPVAPRDVPLLPSDVKLKLYDRSLESNPEQLQAMRHIVTGTTRPAPYIIFGPPGTGKTVTLVEAIKQVVKHLPKAHILACAPSNSGADLLCQRLRVHLPSSIYRLLAPSRDIRMVPEDIKPCCNWDAKKGEYVFPAKKKLQEYRVLITTLITAGRLVSAQFPIDHFTHIFIDEAGHCMEPESLVAIAGLMEVKETGDPGGQLVLAGDPRQLGPVLRSPLTQKHGLGYSLLERLLTYNSLYKKGPDGYDPQFITKLLRNYRSHPTILDIPNQLYYEGELQACADVVDRERFCRWAGLPRQGFPIIFHGVMGKDEREGNSPSFFNPEEAATVTSYLKLLLAPSSKKGKARLSPRSVGVISPYRKQVEKIRYCITKLDRELRGLDDIKDLKVGSVEEFQGQERSVILISTVRSSQSFVQLDLDFNLGFLKNPKRFNVAVTRAKALLIIVGNPLLLGHDPDWKVFLEFCKENGGYTGCPFPAKLDLQQGQNLLQGLSKLSPSTSGPHSHDYLPQEREGEGGLSLQVEPEWRNEL
	binds	binds	CSTF2 (protein, UniProt P33240 1-577) MAGLTVRDPAVDRSLRSVFVGNIPYEATEEQLKDIFSEVGPVVSFRLVYDRETGKPKGYGFCEYQDQETALSAMRNLNGREFSGRALRVDNAASEKNKEELKSLGTGAPVIESPYGETISPEDAPESISKAVASLPPEQMFELMKQMKLCVQNSPQEARNMLLQNPQLAYALLQAQVVMRIVDPEIALKILHRQTNIPTLIAGNPQPVHGAGPGSGSNVSMNQQNPQAPQAQSLGGMHVNGAPPLMQASMQGGVPAPGQMPAAVTGPGPGSLAPGGGMQAQVGMPGSGPVSMERGQVPMQDPRAAMQRGSLPANVPTPRGLLGDAPNDPRGGTLLSVTGEVEPRGYLGPPHQGPPMHHVPGHESRGPPPHELRGGPLPEPRPLMAEPRGPMLDQRGPPLDGRGGRDPRGIDARGMEARAMEARGLDARGLEARAMEARAMEARAMEARAMEARAMEVRGMEARGMDTRGPVPGPRGPIPSGMQGPSPINMGAVVPQGSRQVPVMQGTGMQGASIQGGSQPGGFSPGQNQVTPQDHEKAALIMQVLQLTADQIAMLPPEQRQSILILKEQIQKSTGAP
